# Test results reported in the supplement of paper PMC11006884.
# The chains behind the UniProt entries cited, without tags or fusion partners. Where a name states a change or a piece, a line headed by the entry shows the natural chain unless it says otherwise.
# UniProt Q9NSD9: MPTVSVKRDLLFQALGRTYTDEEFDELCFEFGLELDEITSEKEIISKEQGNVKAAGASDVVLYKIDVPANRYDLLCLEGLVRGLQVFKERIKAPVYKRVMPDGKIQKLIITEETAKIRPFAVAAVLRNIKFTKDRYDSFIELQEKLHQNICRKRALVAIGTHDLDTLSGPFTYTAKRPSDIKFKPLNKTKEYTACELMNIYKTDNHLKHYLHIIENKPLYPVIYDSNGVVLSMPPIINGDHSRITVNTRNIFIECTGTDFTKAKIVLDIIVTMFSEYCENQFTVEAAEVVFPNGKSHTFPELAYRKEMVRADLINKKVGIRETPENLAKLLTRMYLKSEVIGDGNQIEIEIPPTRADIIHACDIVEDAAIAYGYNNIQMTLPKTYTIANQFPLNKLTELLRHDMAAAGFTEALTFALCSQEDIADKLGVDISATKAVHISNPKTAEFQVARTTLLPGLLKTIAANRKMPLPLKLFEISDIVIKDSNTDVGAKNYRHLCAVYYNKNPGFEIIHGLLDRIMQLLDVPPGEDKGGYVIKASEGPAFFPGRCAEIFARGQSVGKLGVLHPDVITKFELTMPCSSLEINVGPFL
# UniProt Q9H9A6: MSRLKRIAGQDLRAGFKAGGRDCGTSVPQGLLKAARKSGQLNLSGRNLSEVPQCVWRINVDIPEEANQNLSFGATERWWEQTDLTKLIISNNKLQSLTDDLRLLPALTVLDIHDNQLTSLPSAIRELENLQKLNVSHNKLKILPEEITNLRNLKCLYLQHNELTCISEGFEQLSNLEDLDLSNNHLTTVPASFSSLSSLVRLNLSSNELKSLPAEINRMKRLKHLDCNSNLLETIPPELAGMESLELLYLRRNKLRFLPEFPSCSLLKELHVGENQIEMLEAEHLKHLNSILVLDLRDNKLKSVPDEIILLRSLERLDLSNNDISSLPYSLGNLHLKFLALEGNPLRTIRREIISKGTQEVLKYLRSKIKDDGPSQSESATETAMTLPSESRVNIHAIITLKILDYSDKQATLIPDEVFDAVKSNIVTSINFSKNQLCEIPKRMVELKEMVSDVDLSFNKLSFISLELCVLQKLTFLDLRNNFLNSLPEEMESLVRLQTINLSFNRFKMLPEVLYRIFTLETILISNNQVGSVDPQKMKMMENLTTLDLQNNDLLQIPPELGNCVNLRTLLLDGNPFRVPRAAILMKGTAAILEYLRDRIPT
# UniProt Q9HCC0: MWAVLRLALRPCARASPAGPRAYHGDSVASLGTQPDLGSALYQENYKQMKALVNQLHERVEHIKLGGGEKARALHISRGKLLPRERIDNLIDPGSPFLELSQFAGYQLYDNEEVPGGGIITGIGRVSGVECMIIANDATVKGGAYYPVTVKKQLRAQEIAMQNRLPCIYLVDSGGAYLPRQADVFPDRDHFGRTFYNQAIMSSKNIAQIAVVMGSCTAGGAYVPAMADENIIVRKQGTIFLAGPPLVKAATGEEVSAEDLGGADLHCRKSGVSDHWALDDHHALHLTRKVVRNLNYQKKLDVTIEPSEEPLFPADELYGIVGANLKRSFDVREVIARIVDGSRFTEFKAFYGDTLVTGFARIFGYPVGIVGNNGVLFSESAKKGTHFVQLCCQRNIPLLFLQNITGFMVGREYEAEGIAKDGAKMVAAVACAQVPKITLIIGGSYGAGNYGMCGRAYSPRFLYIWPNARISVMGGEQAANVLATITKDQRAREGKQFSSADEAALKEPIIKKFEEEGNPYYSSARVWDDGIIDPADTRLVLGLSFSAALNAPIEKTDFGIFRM
# UniProt Q9NQW6: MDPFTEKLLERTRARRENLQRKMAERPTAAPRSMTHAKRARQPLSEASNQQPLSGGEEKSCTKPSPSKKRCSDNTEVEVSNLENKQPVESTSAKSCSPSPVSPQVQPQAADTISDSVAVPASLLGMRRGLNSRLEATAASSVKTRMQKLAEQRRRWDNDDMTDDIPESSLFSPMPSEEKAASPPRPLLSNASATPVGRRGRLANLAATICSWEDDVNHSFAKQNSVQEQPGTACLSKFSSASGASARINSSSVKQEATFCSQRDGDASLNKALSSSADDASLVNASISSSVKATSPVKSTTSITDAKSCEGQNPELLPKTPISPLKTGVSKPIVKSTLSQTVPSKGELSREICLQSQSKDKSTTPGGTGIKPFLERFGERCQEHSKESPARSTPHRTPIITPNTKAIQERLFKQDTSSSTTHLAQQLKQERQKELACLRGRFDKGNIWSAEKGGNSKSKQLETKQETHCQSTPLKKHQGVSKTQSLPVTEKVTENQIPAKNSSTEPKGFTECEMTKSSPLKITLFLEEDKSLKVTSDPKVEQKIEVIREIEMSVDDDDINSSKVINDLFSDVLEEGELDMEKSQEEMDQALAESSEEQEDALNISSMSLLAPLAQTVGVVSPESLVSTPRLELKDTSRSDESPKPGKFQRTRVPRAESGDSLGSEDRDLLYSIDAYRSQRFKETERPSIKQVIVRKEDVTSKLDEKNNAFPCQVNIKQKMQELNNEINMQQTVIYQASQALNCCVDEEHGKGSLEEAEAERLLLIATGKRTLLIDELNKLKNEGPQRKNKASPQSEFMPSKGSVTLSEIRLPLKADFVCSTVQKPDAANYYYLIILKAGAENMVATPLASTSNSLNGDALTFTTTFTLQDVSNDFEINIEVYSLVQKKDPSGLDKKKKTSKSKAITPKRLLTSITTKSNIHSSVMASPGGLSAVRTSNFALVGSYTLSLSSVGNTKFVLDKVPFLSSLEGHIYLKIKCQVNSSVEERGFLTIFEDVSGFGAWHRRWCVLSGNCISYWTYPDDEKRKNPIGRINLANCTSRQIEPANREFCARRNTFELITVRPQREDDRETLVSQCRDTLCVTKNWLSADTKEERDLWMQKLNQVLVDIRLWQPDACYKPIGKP
# UniProt Q9HAV4: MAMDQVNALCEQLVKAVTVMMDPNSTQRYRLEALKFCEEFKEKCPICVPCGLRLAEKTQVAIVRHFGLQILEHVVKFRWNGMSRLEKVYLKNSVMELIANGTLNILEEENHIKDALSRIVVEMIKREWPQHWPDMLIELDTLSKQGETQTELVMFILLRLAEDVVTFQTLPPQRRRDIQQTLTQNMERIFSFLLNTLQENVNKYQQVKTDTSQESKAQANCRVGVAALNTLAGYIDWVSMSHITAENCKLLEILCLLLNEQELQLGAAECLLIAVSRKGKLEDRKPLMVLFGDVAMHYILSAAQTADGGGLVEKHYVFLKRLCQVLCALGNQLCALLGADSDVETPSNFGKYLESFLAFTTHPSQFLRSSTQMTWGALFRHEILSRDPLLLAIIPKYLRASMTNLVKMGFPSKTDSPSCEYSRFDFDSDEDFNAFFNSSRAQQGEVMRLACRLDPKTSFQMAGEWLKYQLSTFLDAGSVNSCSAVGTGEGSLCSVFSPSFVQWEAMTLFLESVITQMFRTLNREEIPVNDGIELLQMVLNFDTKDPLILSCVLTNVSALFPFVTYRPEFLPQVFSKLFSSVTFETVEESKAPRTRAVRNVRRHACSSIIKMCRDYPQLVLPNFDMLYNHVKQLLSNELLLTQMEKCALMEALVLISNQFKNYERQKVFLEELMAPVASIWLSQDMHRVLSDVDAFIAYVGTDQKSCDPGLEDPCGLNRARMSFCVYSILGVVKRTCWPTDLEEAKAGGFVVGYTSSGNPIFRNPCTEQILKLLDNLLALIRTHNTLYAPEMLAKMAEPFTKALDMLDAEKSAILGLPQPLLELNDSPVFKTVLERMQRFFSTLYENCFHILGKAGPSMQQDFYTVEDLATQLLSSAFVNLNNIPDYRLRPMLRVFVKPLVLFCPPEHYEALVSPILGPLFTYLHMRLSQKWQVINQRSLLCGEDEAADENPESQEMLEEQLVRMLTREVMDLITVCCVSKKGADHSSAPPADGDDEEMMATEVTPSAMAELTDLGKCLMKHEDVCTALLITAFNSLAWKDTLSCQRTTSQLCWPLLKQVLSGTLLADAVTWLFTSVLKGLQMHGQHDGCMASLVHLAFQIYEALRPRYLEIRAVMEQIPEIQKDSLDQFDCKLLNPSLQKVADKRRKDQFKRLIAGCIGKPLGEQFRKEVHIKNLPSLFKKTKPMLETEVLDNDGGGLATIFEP
# UniProt Q9HBK9: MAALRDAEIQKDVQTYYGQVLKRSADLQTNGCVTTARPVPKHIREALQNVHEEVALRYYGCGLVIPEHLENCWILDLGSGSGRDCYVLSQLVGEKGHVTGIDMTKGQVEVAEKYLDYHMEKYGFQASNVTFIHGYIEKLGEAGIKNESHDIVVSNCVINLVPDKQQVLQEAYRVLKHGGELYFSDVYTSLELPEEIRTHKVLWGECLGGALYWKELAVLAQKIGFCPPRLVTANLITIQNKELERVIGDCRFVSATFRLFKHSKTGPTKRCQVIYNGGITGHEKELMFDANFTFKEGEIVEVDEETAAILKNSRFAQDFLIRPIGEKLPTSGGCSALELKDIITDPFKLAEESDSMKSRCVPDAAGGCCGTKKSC
# UniProt Q9HC36: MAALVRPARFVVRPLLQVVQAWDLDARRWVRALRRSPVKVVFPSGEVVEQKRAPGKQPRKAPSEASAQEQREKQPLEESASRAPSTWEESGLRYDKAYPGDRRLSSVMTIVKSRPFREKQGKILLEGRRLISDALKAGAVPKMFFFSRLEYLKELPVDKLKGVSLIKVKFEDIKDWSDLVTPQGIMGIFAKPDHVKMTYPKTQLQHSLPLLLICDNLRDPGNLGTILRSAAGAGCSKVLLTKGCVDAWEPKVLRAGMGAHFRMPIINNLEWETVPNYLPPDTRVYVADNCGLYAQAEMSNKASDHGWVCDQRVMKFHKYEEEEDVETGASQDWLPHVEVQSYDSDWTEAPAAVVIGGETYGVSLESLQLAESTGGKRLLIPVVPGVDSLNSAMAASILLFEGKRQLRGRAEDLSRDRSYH
# UniProt Q9NQ29: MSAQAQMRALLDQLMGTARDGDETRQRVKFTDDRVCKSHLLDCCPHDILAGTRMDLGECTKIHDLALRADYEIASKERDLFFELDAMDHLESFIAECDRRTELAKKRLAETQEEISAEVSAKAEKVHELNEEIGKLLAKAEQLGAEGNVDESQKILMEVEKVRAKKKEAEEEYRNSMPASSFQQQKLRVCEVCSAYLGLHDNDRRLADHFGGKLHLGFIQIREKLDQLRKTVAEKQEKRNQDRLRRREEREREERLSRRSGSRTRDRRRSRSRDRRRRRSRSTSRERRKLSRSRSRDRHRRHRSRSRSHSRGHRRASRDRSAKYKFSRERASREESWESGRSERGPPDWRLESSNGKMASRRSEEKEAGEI
# UniProt Q9H9B1: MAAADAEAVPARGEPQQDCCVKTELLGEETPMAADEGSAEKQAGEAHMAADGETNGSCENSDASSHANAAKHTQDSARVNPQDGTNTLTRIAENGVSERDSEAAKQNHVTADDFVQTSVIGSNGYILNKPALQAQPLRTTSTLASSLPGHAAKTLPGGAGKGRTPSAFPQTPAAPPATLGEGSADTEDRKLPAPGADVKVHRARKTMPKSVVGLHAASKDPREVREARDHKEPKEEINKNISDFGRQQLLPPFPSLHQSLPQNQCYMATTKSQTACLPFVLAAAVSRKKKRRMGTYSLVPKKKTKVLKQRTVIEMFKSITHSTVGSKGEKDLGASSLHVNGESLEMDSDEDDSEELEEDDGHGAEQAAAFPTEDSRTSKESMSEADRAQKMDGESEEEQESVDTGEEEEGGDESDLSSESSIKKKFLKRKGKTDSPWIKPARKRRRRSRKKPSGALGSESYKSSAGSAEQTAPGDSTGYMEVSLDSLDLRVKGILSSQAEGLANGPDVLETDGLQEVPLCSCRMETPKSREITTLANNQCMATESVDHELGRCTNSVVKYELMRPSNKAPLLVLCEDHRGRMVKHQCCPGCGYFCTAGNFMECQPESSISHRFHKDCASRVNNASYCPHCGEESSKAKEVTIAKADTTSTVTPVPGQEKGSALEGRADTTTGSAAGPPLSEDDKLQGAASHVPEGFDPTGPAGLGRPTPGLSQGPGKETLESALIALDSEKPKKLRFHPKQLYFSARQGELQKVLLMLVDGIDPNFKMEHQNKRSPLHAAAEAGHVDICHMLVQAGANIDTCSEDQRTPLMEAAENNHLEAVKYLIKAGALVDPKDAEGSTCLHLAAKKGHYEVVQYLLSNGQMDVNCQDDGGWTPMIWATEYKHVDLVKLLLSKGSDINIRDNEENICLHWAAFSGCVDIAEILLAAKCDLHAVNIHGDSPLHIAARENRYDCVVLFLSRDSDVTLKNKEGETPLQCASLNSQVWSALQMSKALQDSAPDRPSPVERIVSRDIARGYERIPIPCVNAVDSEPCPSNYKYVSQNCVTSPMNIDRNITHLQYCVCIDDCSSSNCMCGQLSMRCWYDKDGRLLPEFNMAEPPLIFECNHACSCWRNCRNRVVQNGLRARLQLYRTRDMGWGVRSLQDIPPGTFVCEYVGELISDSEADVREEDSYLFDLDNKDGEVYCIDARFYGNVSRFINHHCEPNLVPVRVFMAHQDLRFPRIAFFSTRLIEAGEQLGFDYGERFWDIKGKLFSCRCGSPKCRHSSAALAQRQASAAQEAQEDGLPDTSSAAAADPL
# Most of the targets with a hit are listed elsewhere, so they are rarer here than in the full data. Single values of this set are uncertain. The entries are a selection whose mix differs from that of the whole data set.
# Compound: COC(=O)/C=C/c1ccccc1 [methyl cinnamate]
# Test: log2 ratio of iodoacetamide-alkyne labeling of the cysteine site, DMSO over compound (competition); higher = stronger covalent engagement of the cysteine by the compound, active = 1 or more
# Settings: 500 µM; treatment time 1 h; system: HEK293T cell lysate
# How it was run: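 HEK293T lysate (2 mg/mL) was incubated with electrophile (500 µM) or vehicle for 1 h at ambient temperature and then with iodoacetamide alkyne for 1 h. Labelled proteins were clicked to sCIP-TMT reagents, pooled, digested, enriched on streptavidin and measured by Orbitrap Eclipse LC-MS/MS with FAIMS, with FragPipe quantification. The per-cysteine log2 competition ratio is mean control-channel reporter intensity over mean compound-channel reporter intensity. Across three replicates with duplicate channels, cysteines quantified in only one replicate were excluded.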
row,Target,log2 ratio of iodoacetamide-alkyne labeling
1,MDN1 C57 (UniProt Q9NU22),inactive: -0.221
2,FARSB C151 (UniProt Q9NSD9),inactive: -0.251
3,LRRC40 C227 (UniProt Q9H9A6),inactive: -0.081
4,UniProt Q9H871_C4,inactive: 0.000816
5,CELSR2 C2646 (UniProt Q9HCU4),inactive: 0.267
6,PNN C249 (UniProt Q9H307),inactive: 0.132
7,MDN1 C4259 (UniProt Q9NU22),inactive: 0.114
8,MLXIP C738 (UniProt Q9HAP2),inactive: -0.173
9,MCCC2 C167 (UniProt Q9HCC0),inactive: 0.0763
10,C11orf68 C199 (UniProt Q9H3H3),inactive: 0.0529
11,ANLN C210 (UniProt Q9NQW6),inactive: 0.104
12,UNC45A C745 (UniProt Q9H3U1),inactive: -0.18
13,REEP4 C200 (UniProt Q9H6H4),inactive: 0.322
14,XPO5 C1157 (UniProt Q9HAV4),inactive: 0.112
15,UNC45A C426 (UniProt Q9H3U1),inactive: 0.11
16,UBN1 C711 (UniProt Q9NPG3),inactive: 0.519
17,ACAD9 C179 (UniProt Q9H845),inactive: 0.0212
18,UniProt Q9NUP1_C210,inactive: 0.169
19,RPAP3 C519 (UniProt Q9H6T3),inactive: 0.192

row,Target,log2 ratio of iodoacetamide-alkyne labeling
1,UPF2 C1107 (UniProt Q9HAU5),inactive: 0.00534
2,XPO5 C1131 (UniProt Q9HAV4),inactive: 0.198
3,UniProt Q9HBK9_C32,inactive: 0.467
4,FARSB C418 (UniProt Q9NSD9),inactive: -0.242
5,XPO5 C1025 (UniProt Q9HAV4),inactive: 0.313
6,UniProt Q9HC36_C290,inactive: 0.312
7,PPAN C391 (UniProt Q9NQ55),inactive: 0.177
8,KIF15 C862 (UniProt Q9NS87),inactive: 0.0291
9,HELLS C205 (UniProt Q9NRZ9),inactive: 0.121
10,MRPL46 C52 (UniProt Q9H2W6),inactive: -0.163
11,LUC7L C59 (UniProt Q9NQ29),inactive: 0.0638
12,C8orf33 C117 (UniProt Q9H7E9),inactive: 0.157
13,EML4 C82 (UniProt Q9HC35),inactive: -0.148
14,EHMT1 C265 (UniProt Q9H9B1),inactive: -0.0759
15,STRN4 C580 (UniProt Q9NRL3),inactive: -0.314
16,UniProt Q9HBK9_C334,inactive: 0.231
17,PPA2 C161 (UniProt Q9H2U2),inactive: 0.154
18,ZNF703 C96 (UniProt Q9H7S9),inactive: 0.283
19,CHD8 C1161 (UniProt Q9HCK8),inactive: 0.233

# Given bar-delimited: entries from further up
row | Target | log2 ratio of iodoacetamide-alkyne labeling
9 | HELLS C205 (UniProt Q9NRZ9) | inactive: 0.121
10 | MRPL46 C52 (UniProt Q9H2W6) | inactive: -0.163
11 | LUC7L C59 (UniProt Q9NQ29) | inactive: 0.0638
12 | C8orf33 C117 (UniProt Q9H7E9) | inactive: 0.157
13 | EML4 C82 (UniProt Q9HC35) | inactive: -0.148
14 | EHMT1 C265 (UniProt Q9H9B1) | inactive: -0.0759
15 | STRN4 C580 (UniProt Q9NRL3) | inactive: -0.314
16 | UniProt Q9HBK9_C334 | inactive: 0.231
17 | PPA2 C161 (UniProt Q9H2U2) | inactive: 0.154
18 | ZNF703 C96 (UniProt Q9H7S9) | inactive: 0.283
19 | CHD8 C1161 (UniProt Q9HCK8) | inactive: 0.233
